In this assay the target is 5-hydroxytryptamine receptor 2B (Homo sapiens, UniProt P41595).

The chains behind the UniProt entries cited, without tags or fusion partners.
UniProt P41595, whole entry: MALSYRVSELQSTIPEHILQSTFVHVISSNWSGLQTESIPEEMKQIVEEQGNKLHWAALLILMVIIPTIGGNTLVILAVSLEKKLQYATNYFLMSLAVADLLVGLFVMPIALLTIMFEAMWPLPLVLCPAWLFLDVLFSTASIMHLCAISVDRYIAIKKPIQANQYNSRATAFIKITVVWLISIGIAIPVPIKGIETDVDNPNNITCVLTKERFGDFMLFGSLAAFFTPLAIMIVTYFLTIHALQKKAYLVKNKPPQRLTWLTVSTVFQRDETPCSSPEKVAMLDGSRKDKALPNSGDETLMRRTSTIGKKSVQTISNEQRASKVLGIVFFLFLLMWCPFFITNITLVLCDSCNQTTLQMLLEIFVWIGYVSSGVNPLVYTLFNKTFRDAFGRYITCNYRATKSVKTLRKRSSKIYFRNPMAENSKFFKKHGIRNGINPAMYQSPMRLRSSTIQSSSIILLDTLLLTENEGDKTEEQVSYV

The structures appear in SMILES notation.

In the case of `CC[C@@H](CO)NC(=O)[C@@H]1C=C2c3cccc4c3c(cn4C)C[C@H]2N(C)C1`, affinity was put at a Ki of 1.59 nM.

The record behind these values is BindingDB's records for PubMed 8632342 (Eli Lilly, 1996).
